Source: patent US7262172B2, “Macrolides” (Glaxo Group Limited, priority 2000, dated 2007)
Some of these results come from one statement about several compounds together.

Experiments:
[1] = system: erythromycin resistant Streptococcus pneumoniae strains; experiment: MIC according to NCCLS, erythromycin resistant S. pneumoniae; type: cell-based
[2] = system: erythromycin susceptible Streptococcus pneumoniae; experiment: MIC according to NCCLS, erythromycin susceptible S. pneumoniae; type: cell-based

Q: For “4″-O-(4-nitrophenylacetyl)-6-O-methyl-8a-aza-8a-homoerythromycin A [Example 1]”, which MIC [1] is on record?
A: The MIC was “<= 2 ug/ml”.

Q: And the “MIC (microbial inhibition concentration)” value [2]?
A: The value was “<= 0.01 ug/ml”.
